From publication PMC2679207, “GLS-1, a Novel P Granule Component, Modulates a Network of Conserved RNA Regulators to Influence Germ Cell Fate Decisions” (PLoS Genetics, 2009)
No constants are given. Whether binding was seen depends on the method and setting. For part of these data: Binding seen in cells or lysates may run through a third protein. Some results given as binding are weak or reduced against the parent protein; the word gives no strength. Sequences can lack the tags named with a protein.

Key:
[1] = biological target: T1, MBP::GLD-3L with C-terminal His tag, from insect cells (C. elegans) (UniProt Q95ZK7); assay: co-IP; proteins co-expressed in insect cells; MBP::GLD-3L (wt or ax562) precipitated by an anti-GLD-3 N-terminal antibody; result does not depend on the temperature at which cells were grown
T1 sequence: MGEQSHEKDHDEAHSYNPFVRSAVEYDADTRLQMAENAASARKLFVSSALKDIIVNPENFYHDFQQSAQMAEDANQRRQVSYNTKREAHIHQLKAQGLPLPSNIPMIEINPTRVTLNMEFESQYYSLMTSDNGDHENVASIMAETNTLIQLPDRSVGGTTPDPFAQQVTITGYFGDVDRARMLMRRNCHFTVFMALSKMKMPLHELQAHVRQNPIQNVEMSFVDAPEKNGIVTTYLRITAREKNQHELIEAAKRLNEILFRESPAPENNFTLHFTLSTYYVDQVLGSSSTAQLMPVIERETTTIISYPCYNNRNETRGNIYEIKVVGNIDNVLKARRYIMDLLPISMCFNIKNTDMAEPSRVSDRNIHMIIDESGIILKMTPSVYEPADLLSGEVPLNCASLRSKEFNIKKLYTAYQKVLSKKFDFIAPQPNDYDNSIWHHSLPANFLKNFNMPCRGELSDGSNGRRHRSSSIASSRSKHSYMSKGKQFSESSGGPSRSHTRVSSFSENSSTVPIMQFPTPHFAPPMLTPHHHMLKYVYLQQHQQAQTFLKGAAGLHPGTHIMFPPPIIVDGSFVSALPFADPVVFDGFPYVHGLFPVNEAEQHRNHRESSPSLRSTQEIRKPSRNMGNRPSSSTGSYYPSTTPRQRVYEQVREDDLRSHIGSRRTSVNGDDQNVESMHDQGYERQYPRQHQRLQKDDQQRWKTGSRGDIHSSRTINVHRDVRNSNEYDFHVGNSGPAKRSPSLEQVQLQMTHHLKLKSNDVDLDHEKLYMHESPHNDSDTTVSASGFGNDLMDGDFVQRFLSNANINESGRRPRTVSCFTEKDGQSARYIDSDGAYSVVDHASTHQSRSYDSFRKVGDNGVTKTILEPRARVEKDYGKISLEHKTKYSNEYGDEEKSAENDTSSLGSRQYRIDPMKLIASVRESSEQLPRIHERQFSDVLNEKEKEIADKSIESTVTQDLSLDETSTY

[2] = biological target: T1, MBP::GLD-3L with C-terminal His tag, from insect cells (C. elegans); assay: pull-down; GLS-1 or GFP co-expressed with MBP-GLD-3L in insect cells by baculovirus co-infection; captured on amylose resin; immunoblotting; extracts RNAse A or mock treated
[3] = biological target: T2, GLD-3L with C-terminal His tag, MBP cleaved off (C. elegans) (UniProt Q95ZK7); assay: pull-down; competition assay; MBP-FBF-1 immobilized on amylose beads, loaded with GLD-3L, then challenged with increasing amounts of free GLS-1; washed; GLD-3L on beads quantified from Western blot bands; both purified
T2 sequence: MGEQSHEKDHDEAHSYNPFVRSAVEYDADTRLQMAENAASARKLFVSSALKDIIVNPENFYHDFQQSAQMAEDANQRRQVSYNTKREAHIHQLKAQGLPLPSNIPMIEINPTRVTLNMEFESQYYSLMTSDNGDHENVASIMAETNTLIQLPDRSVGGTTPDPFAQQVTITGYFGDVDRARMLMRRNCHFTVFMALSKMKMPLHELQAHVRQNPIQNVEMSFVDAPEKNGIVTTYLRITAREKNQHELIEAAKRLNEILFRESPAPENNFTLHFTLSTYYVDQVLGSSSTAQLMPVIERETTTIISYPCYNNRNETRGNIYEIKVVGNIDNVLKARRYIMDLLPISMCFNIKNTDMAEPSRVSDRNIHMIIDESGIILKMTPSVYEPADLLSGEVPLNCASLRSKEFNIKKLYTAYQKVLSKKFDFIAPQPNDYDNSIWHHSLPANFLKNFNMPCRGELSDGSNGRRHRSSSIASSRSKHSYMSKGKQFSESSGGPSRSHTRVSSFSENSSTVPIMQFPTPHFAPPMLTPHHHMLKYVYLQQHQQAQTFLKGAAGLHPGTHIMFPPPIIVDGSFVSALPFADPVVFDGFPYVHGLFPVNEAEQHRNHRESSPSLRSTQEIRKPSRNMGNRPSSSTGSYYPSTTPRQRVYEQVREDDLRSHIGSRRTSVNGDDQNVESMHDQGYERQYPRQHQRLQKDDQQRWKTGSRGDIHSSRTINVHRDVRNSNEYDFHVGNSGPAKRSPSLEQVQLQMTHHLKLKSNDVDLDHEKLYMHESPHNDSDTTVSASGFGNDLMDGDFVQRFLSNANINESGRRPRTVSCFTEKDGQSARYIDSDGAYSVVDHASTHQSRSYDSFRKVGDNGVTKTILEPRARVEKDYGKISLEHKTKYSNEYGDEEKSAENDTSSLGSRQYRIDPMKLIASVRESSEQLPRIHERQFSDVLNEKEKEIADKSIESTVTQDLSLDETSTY

Measured: binding

B1: GLS-1(FL) with C-terminal His tag, from insect cells (protein, UniProt Q8I4M5 26-1052)
chain: LTLQEKRKKSRLTGILMKSMANKKNHQQKKSTDGSTMNGNNATATAAATTQNSSQIGQNSNSSHSVTNDNTSSNNASTSTSSITSTTTTTTTVPSSQQSQSQNQYSHQRLSSTSSTSQQTGISKFPAKKAGHNELEKTSNTANSQSGAFKGTTNKDRPKEKEKNTHSGNRQSQVNHNHHHSNHVSGNQQNRKNKNRDHSNQSYRGGYTHNHNNYHSLENAKSSGFLSNSSLSSAGQISASSAPPVSTTPTAIPIFQESKIVQTDPPVEEAKKKKEKPKIKRDEEPMPYKSTDPKNMDSVMAFKEHDEWDKVEFMCELVSFLSPTDLRLLGNCIEGSVRCYNNQMRPVEKTSNCSDPTAGLPQFVCSPPPPPQQVYYFPGIADAALYQTRNAVNSVFVQQHPPGLPPLLGGMQNIMYPPDANFHHSTSCTTPSSSVSVANKDVNNVPVVLSSSVNGISNNIPSDRQQLDSKPNTARGSSGNINQSNTTSPEPEPGSNHISTTAANPAHPTSVTVPQSVPPVPQEPELFLKSVLDLTSYIYTLMAVCSSTNRKSAAKISDYVQNVILREKSQILERIPDELDKITVLQEIGKIVAAMTHHPAITLDDKMKYAALRDGLRAQIETLFRQYYTTQKQLEQSNLVVPSSQAVGDENDTDSDHESEEEFEPLSGVMGSRFESNPVQPSPSVPGTFFIIRFIGRQIEKNDNLFSLEIHWSDGDRTFAQRSRDQLKALQHRLLDEFGQQRSEKYLHQGCTTSYSSFDDDNKKLSASTSTMETFAPNGERIVPRLARDATPAQYVQYINELSDLPARMMLSAVICEEFNGTRAKTEDLLQETREASDGLIYSRWKNPRAKSPVRYFKRNATGSIDPIELPVNMQPFLYSNIPQTQVQTLFPSCSNCGGPHAPKHCEKQTLLSKKGDHRTRSDGEGSQQNGGTSSSNSYAPIHANLPHAVYIENPQAMLGSNHFNHHQQQHIIQNTIFHNGGQFRANGTYEPQIPIAYYHAQGTVQNSNNTGGVNGNSGGGNQNSNF
binds: [1] | [2] | [3]
